Assay results reported in patent publication US5658908A (priority 1992, dated 1997).
For at least one compound, name, drawing or mass did not settle the structure.

Test system: mu receptor
Experiment: Mu opioid receptor agonist activity
Settings: in words

## C=CCN1C[C@H](C)N([C@H](c2cccc(O)c2)c2cccs2)C[C@H]1C [Example 67, (-)-3-((R)-((2S,5R)-4-Allyl-2,5-dimethyl-1-piperazinyl)(2-thienyl)methyl)phenol]
  mu receptor agonist activity: predominantly mu receptor agonist
